Source: PubChem BioAssay (Tox21)
Values joined by “and” are separate entries in the source; they are usually repeats but may differ in a detail not shown here. Identical values can stand only once. This list holds what a sample rich in hits left over. Inconclusive results are not listed. Active and inactive are the calls of the source. Calls follow the shape of the dose curve; as a rule, active = well fitted cell-killing curve with a large enough effect in the repeat runs; inconclusive = weak or mixed curves, or effect the other way; inactive = flat fitted curve, though single readings scatter.

Columns and labels:
[1] = cAMP Responsive Elements (CRE) small molecule antagonists, cell-based qHTS assay: qHTS cell viability counter screen (AID 2060913); conditions: CRE-bla HEK293T viability, CellTiter-Glo luminescence, 5 h; also: nearly all actives have a fitted effect of over 40% in size
From the text: (§1) U.S. Tox21 Program National Center for Advancing Translational Sciences [NCATS] Division of Preclinical Innovation [DPI] U.S. Environmental Protection Agency [EPA] National Institutes of Environmental Health Sciences [NIEHS] National Toxicology Program [NTP] U.S. Food and Drug Administration [FDA] Tox21 Assay Overview: CREB (cyclic-AMP Responsive Element Binding Protein) is a cellular transcription factor. It binds to certain DNA sequences called cAMP Responsive Elements (CRE) and regulates the transcription of the genes. […] This cell line can be used to find agonists/antagonists of the cyclic AMP signaling pathway. The activation of the report gene under culture conditions can be detected by fluorescence intensity. This cell line has been used to screen the Tox21 10K compound library to identify agonists that induce oxidative stress. The cytotoxicity of the Tox21 compound library against the CRE-bla cell line was tested in parallel by measuring the cell viability using CellTiter-Glo assay (Promega, Madison, WI) in the same wells.
Tox21 Assay Protocol Summary: CRE-bla Hek 293T cells were suspended in assay medium (DMEM containing 10% dialyzed FBS, 0.1 mM NEAA, 1 mM sodium pyruvate and 25 mM HEPES) and dispensed at 2,000 cells/4 uL /well into 1536-well black wall/clear bottom plates using a Multidrop Combi (ThermoFisher Scientific, Waltham, MA) dispenser. After the assay plates were incubated at 37 C/5% CO2 for 18 hrs, 23 nL of compounds dissolved in DMSO, positive controls or DMSO only was transferred to the assay plate by a pintool workstation (Kalypsys, San Diego, CA), followed by addition of 1 uL of 1.25uM NKH477 (0.25 uM as final concentration) in assay medium using a Flying Reagent Dispenser (Aurora Discovery, San Diego, CA). The plates were incubated at 37 C and 5% CO2 for 3 hrs. Then 1 uL of LiveBLAzer B/G FRET substrate (Invitrogen, Carlsbad, CA) was added to each well using Bioraptr Flying Reagent Dispenser (FRD, Aurora Discovery, San Diego, CA). The plates were incubated at room temperature for 2 h, then fluorescence intensities were measured using an Envision plate reader (PerkinElmer, Shelton, CT) at Excitation 405nm, Emission 460nm and 530nm. The % activity was determined from the ratio of 460nm/530nm. For cell viability readout that measures cytotoxicity, 4 uL /well of CellTiter-Glo reagent was added into the assay plates using Bioraptr FRD. After 30 min incubation at room temperature, the luminescence intensity in the assay plates was measured using a ViewLux (PerkinElmer, Shelton, CT) plate reader.

[2] = cAMP Responsive Elements (CRE) small molecule agonists, cell-based qHTS assay: qHTS cell viability counter screen (AID 2060914); conditions: CRE-bla HEK293T viability, CellTiter-Glo luminescence, 5 h;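 also: viability read after 3 h of compound exposure; nearly all actives have a fitted effect of over 50% in size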
From the text: National Center for Advancing Translational Sciences [NCATS]
Division of Preclinical Innovation [DPI]
U.S. Environmental Protection Agency [EPA]
National Institutes of Environmental Health Sciences [NIEHS]
National Toxicology Program [NTP]
U.S. Food and Drug Administration [FDA]
as §1, with “CREB” for “U.S. Tox21 Program National Center for Advancing Translational Sciences [NCATS] Division of Preclinical Innovation [DPI] U.S. Environmental Protection Agency [EPA] National Institutes of Environmental Health Sciences [NIEHS] National Toxicology Program [NTP] U.S. Food and Drug Administration [FDA] Tox21 Assay Overview: CREB”
Tox21 Assay Protocol Summary:
CRE-bla Hek 293T cells were suspended in assay medium (DMEM containing 10% dialyzed FBS, 0.1 mM NEAA, 1 mM sodium pyruvate and 25 mM HEPES) and dispensed at 2,000 cells/5 uL /well into 1536-well black wall/clear bottom plates using a Multidrop Combi (ThermoFisher Scientific, Waltham, MA) dispenser. After the assay plates were incubated at 37 C/5% CO2 for 18 hrs, 23 nL of compounds dissolved in DMSO, positive controls or DMSO only was transferred to the assay plate by a pintool workstation (Kalypsys, San Diego, CA). After the plates were incubated at 37 C/5% CO2 for 3 hrs, 1 uL of LiveBLAzer B/G FRET substrate (Invitrogen, Carlsbad, CA) was added to each well using Bioraptr Flying Reagent Dispenser (FRD, Aurora Discovery, San Diego, CA). The plates were incubated at room temperature for 2 h, then fluorescence intensities were measured using an Envision plate reader (PerkinElmer, Shelton, CT) at Excitation 405nm, Emission 460nm and 530nm. The % activity was determined from the ratio of 460nm/530nm. For cell viability readout that measures cytotoxicity, 4 uL /well of CellTiter-Glo reagent was added into the assay plates using Bioraptr FRD. After 30 min incubation at room temperature, the luminescence intensity in the assay plates was measured using a ViewLux (PerkinElmer, Shelton, CT) plate reader.
% is scaled to controls: 0 for no effect and ±100 for the full control effect.

Row | Compound | viability change, negative = cytotoxic ([1]; at 92.4 µM (top of the series)) | activity change, negative = cytotoxicity ([2]; at 92.4 µM (top of the series)) | viability change, negative = cytotoxic ([1]; at 42.5 µM (top of the series)) | activity change, negative = cytotoxicity ([2]; at 42.5 µM (top of the series))
1 | Cc1ccc2ccccc2c1C | inactive: -1.88% and inactive: -3.1% | inactive: 1.64% and inactive: 1.6% |  | 
2 | Cc1ccc(O)cc1C | inactive: 5.63% and inactive: 8.76% | inactive: -7.25% and inactive: -5.9% |  | 
3 | CC(C)(C)c1ccc(O)cc1 | inactive: -10.6% and inactive: -7.16% | inactive: 0.308% and inactive: -20.8% | inactive: 0.0117% | inactive: -5.58%
4 | O=[N+]([O-])c1ccccc1Cl |  | inactive: 15.7% |  | 
5 | Oc1c(Cl)cc(Cl)cc1Cl | inactive: 0.901% and inactive: 3.94% | inactive: 1.66% and inactive: 0.149% |  | 
